Results published in the supplement of paper PMC10849652.
The list shows a part of the results.

Protein sequences, listed by entry. Tags and fused reporters are not part of them. Lines headed by an entry give the natural chain unless they say otherwise; changes in a name come on top.
UniProt Q7Z4G1, whole entry, looked up: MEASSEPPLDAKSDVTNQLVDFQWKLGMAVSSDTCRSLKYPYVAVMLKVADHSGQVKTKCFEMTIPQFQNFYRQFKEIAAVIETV
UniProt Q9GZY4: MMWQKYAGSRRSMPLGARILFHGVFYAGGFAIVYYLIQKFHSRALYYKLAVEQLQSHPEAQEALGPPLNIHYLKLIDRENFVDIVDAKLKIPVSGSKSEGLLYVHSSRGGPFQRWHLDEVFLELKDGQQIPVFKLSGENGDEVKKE
UniProt P29373: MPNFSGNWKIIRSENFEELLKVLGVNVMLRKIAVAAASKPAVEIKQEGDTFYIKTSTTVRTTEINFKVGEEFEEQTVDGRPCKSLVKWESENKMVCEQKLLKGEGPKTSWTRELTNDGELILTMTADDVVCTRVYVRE
UniProt Q86VX2, whole entry, looked up: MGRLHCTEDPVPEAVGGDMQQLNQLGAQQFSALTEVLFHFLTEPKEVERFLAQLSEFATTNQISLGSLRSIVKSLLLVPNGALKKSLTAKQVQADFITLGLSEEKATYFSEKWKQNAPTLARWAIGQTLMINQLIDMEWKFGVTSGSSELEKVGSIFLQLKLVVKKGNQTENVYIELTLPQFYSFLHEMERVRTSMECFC
UniProt Q99829: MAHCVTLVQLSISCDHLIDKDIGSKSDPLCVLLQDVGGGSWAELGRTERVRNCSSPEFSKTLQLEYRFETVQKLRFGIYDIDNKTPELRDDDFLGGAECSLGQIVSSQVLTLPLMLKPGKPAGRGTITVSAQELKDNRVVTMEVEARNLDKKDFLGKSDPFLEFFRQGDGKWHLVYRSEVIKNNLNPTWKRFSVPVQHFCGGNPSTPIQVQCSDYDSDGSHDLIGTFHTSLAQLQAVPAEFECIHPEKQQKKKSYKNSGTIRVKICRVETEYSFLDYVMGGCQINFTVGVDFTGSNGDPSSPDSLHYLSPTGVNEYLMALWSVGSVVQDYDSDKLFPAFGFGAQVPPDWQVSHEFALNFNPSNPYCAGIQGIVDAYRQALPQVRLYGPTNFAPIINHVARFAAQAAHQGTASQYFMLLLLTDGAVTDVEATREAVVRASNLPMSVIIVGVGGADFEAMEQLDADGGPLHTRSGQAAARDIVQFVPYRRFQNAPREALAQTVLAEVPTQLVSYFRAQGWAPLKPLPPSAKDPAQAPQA
UniProt Q5JTJ3: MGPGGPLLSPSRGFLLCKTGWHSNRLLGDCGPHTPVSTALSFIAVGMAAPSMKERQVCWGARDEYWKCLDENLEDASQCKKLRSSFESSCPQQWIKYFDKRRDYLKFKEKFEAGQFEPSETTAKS
UniProt P61923: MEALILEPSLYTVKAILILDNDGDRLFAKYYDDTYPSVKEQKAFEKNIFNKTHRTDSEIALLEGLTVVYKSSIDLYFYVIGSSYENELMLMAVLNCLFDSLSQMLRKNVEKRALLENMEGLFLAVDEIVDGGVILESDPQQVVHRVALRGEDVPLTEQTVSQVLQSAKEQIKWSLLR
UniProt O95628: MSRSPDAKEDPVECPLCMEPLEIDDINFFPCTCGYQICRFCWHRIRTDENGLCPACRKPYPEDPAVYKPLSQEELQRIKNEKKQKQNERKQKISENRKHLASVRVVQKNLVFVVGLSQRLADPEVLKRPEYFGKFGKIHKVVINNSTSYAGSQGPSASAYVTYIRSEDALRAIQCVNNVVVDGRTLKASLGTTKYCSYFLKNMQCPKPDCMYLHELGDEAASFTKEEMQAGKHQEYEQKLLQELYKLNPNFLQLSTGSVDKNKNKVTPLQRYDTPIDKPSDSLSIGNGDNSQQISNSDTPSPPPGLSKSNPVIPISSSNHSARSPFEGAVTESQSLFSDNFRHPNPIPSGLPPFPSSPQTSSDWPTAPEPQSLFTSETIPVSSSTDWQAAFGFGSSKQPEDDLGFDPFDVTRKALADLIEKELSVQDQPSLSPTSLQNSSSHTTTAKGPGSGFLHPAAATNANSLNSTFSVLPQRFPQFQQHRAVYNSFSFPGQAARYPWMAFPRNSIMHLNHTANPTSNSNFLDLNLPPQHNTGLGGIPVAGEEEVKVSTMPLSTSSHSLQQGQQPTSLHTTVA
UniProt Q8NE01: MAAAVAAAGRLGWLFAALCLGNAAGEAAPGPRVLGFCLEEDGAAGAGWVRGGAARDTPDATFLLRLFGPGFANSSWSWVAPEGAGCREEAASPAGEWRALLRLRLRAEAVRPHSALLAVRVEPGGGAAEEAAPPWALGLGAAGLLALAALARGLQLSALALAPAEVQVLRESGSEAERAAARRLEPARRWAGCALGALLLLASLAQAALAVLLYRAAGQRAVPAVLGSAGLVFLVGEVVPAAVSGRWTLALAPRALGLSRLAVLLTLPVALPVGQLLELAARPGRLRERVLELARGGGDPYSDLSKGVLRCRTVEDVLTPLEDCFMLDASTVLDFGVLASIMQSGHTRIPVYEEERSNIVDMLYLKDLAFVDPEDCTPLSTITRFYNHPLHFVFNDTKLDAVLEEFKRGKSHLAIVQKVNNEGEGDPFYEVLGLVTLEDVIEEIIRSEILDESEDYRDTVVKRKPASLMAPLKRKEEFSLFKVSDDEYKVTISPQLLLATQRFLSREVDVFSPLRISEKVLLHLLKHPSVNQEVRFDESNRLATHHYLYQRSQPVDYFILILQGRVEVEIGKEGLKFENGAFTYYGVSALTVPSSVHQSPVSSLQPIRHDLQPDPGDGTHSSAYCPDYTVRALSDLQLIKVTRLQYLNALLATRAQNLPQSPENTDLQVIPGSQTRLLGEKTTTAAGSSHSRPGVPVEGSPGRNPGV
UniProt Q9ULV4, whole entry, looked up: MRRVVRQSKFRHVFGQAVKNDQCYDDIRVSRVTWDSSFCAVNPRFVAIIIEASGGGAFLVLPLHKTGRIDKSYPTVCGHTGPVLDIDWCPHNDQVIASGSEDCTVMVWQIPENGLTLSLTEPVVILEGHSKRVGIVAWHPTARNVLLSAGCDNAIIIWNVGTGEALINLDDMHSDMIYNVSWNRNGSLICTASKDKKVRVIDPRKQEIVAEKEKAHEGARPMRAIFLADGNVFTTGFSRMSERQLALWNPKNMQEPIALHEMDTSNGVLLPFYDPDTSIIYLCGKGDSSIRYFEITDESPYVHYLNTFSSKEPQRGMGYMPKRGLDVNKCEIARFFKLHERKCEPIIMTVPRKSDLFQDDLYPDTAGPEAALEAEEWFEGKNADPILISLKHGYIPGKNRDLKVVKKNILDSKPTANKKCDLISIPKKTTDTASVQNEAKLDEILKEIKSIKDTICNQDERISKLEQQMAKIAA
UniProt A4D0V7: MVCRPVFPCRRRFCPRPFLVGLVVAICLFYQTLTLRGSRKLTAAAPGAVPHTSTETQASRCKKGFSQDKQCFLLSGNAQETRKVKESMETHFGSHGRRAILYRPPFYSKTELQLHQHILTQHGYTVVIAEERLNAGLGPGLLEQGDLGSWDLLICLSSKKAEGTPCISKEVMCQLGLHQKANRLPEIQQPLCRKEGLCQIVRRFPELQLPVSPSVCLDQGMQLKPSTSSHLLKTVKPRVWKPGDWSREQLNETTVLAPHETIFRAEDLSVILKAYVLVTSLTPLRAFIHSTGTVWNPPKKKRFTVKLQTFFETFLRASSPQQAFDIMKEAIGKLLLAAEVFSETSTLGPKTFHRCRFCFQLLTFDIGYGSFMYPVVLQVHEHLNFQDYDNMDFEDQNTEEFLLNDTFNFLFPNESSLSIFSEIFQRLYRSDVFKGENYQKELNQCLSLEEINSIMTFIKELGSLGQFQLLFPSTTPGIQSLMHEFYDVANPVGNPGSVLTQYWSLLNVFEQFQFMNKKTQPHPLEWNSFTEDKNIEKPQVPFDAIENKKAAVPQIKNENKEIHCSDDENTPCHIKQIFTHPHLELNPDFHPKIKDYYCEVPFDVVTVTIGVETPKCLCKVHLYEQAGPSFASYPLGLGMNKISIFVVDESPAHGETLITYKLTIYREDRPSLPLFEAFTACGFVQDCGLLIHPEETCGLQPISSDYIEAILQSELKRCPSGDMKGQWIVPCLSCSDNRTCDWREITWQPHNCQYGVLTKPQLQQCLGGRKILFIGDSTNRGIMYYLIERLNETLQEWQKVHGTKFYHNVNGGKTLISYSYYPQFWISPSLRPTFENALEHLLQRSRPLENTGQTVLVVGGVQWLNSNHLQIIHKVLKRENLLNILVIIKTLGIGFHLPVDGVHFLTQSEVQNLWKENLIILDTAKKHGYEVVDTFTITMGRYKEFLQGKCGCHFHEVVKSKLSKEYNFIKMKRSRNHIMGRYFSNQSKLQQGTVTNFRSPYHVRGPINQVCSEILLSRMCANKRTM
UniProt P09543: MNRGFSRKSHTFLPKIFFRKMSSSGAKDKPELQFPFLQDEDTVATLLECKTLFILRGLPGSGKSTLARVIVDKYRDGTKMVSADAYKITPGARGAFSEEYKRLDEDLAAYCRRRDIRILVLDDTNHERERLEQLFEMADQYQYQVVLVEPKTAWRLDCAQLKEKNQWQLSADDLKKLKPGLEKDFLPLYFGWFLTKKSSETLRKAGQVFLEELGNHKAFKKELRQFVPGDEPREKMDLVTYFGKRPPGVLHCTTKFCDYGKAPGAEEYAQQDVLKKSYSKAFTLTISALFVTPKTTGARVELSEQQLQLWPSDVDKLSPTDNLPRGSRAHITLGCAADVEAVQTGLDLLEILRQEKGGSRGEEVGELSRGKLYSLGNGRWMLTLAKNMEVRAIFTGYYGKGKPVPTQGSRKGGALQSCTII
UniProt Q9P2I0: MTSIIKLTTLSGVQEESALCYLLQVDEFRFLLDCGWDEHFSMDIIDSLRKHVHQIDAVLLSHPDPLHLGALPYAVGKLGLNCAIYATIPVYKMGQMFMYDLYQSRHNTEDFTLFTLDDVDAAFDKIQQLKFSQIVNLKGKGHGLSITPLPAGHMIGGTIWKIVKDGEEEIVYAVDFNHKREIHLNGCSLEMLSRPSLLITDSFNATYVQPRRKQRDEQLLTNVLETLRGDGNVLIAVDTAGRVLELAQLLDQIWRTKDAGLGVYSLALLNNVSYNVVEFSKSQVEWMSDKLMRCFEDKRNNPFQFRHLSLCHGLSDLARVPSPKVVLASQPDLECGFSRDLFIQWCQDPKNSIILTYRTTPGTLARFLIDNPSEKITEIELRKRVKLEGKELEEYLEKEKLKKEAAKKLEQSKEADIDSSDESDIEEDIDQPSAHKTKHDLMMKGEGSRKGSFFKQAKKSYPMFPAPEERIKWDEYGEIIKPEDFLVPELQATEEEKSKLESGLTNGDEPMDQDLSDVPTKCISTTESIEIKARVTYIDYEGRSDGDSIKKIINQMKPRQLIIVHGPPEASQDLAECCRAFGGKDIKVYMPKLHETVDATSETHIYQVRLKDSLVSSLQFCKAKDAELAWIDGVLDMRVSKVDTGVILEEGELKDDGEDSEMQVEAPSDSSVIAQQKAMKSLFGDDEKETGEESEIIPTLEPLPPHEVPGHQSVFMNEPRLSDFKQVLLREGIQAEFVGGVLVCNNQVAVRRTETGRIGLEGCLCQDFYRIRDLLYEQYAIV
UniProt P51911: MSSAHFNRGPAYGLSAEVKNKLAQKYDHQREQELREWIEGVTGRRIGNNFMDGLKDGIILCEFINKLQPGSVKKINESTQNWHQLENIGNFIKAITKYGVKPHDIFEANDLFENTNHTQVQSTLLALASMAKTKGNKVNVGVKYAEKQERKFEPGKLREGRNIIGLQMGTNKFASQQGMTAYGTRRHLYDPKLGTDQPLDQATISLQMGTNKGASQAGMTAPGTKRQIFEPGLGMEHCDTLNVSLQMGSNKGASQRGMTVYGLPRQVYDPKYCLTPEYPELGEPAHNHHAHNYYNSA
UniProt P09669, whole entry, looked up: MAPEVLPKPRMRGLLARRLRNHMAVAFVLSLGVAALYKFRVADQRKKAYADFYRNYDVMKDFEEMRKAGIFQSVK
UniProt P36551: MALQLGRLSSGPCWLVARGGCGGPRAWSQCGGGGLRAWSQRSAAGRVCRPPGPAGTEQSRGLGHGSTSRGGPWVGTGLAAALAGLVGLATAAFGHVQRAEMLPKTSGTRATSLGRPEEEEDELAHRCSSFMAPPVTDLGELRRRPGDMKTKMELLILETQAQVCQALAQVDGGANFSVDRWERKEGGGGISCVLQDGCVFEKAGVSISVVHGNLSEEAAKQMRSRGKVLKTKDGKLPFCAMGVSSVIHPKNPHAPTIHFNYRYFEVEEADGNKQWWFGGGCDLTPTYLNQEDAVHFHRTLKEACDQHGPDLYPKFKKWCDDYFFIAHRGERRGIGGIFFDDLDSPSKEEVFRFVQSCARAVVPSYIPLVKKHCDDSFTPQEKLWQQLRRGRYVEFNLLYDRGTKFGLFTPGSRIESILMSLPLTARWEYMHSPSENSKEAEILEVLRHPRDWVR
UniProt Q92905, whole entry, looked up: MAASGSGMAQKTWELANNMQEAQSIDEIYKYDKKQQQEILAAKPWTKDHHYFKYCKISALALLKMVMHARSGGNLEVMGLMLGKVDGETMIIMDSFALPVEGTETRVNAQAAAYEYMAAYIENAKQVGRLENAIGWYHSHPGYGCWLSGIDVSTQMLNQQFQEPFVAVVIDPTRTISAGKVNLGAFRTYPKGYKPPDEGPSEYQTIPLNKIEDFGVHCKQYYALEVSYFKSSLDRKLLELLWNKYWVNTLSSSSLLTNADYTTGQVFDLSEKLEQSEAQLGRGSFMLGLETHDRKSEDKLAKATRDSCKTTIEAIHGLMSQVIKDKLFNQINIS

Compound: Cn1cncc1[C@@](N)(c1ccc(Cl)cc1)c1ccc2c(c1)c(-c1cccc(Cl)c1)cc(=O)n2C [tipifarnib]
Test: log2 fold change, soluble protein after heating vs DMSO (PISA); higher = thermal stabilisation; K562 lysate, 10 uM; active = over 0.2 and 3.5 SD of the protein, either way, in both replicates (recomputed)
Procedure, shortened: (§1)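 Log-two fold change in thermal stability relative to solvent controls is reported from duplicates. For each sample, crude K562 extract from dounce-homogenised pellets in PBS pH 7.4 with 1 mM MgCl2, at 1 mg/mL protein, was treated with 10 μM compound for 30 min. Aliquots heated for 3 min across 48°C-58°C were pooled, brought to 0.5% NP-40 at 4°C and cleared at 21,000xg for 90 min. The supernatant was quantified by TMTpro 16plex LC-MS/MS with channel sums equalised.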

Q: For COMMD6 isoform 2 (UniProt Q7Z4G1), which log2 fold change is on record?
A: inactive: 0.014

Q: How did the log2 fold change turn out when COL6A5 (UniProt A8TX70) was run?
A: inactive: -0.236

Q: Which log2 fold change does the source give for COIL (UniProt P38432) here?
A: inactive: 0.033

Q: Which log2 fold change does the source give for CORO1A (UniProt P31146) here?
A: inactive: 0.032

Q: With COA1 (UniProt Q9GZY4) as the target, how does the log2 fold change read?
A: inactive: 0.007

Q: Which log2 fold change does the source give for CPSF7 isoform 3 (UniProt Q8N684) here?
A: inactive: 0.011

Q: For CRABP2 (UniProt P29373), which log2 fold change is on record?
A: inactive: 0.061

Q: How did the log2 fold change turn out when CPQ (UniProt Q9Y646) was run?
A: inactive: -0.043

Q: How did the log2 fold change turn out when COMMD7 (UniProt Q86VX2) was run?
A: inactive: 0

Q: For COPB1 (UniProt P53618), which log2 fold change is on record?
A: inactive: -0.021

Q: Which log2 fold change does the source give for CNOT8 (UniProt Q9UFF9) here?
A: inactive: -0.002

Q: Which log2 fold change does the source give for CPVL (UniProt Q9H3G5) here?
A: inactive: -0.068

Q: For COA3 (UniProt Q9Y2R0), which log2 fold change is on record?
A: inactive: 0.029

Q: For CPNE1 (UniProt Q99829), which log2 fold change is on record?
A: inactive: 0.003

Q: How did the log2 fold change turn out when COA6 isoform 2 (UniProt Q5JTJ3) was run?
A: inactive: 0.014

Q: With CNPY4 (UniProt Q8N129) as the target, how does the log2 fold change read?
A: inactive: 0

Q: COPZ1 isoform 4 (UniProt P61923) was tested. Which log2 fold change did it give?
A: inactive: 0.002

Q: CNOT4 isoform 6 (UniProt O95628) was tested. Which log2 fold change did it give?
A: inactive: -0.018

Q: CNNM3 (UniProt Q8NE01) was tested. Which log2 fold change did it give?
A: inactive: -0.061

Q: With COMMD8 (UniProt Q9NX08) as the target, how does the log2 fold change read?
A: inactive: 0.037

Q: How did the log2 fold change turn out when COPA isoform 2 (UniProt P53621) was run?
A: inactive: 0.004

Q: CPNE7 (UniProt Q9UBL6) was tested. Which log2 fold change did it give?
A: inactive: 0.001

Q: For CPNE3 (UniProt O75131), which log2 fold change is on record?
A: inactive: -0.01

Q: CNOT9 (UniProt Q92600) was tested. Which log2 fold change did it give?
A: inactive: -0.043

Q: With COG7 (UniProt P83436) as the target, how does the log2 fold change read?
A: inactive: -0.001

Q: For CORO1C isoform 3 (UniProt Q9ULV4), which log2 fold change is on record?
A: inactive: 0.014

Q: With CPED1 (UniProt A4D0V7) as the target, how does the log2 fold change read?
A: inactive: 0.045

Q: Which log2 fold change does the source give for COPS2 isoform 2 (UniProt P61201) here?
A: inactive: 0.023

Q: Which log2 fold change does the source give for CNP (UniProt P09543) here?
A: inactive: -0.055

Q: CPSF2 (UniProt Q9P2I0) was tested. Which log2 fold change did it give?
A: inactive: -0.016

Q: Which log2 fold change does the source give for COQ8A (UniProt Q8NI60) here?
A: inactive: 0.032

Q: COX20 isoform 2 (UniProt Q5RI15) was tested. Which log2 fold change did it give?
A: inactive: 0.117

Q: With CNN1 (UniProt P51911) as the target, how does the log2 fold change read?
A: inactive: -0.109

Q: Which log2 fold change does the source give for CNOT11 (UniProt Q9UKZ1) here?
A: inactive: 0.026

Q: How did the log2 fold change turn out when COPS8 (UniProt Q99627) was run?
A: inactive: 0.004

Q: How did the log2 fold change turn out when COX6C (UniProt P09669) was run?
A: inactive: 0.02

Q: CNPY3 (UniProt Q9BT09) was tested. Which log2 fold change did it give?
A: inactive: -0.006

Q: For COX5B (UniProt P10606), which log2 fold change is on record?
A: inactive: 0.067

Q: Which log2 fold change does the source give for CPOX (UniProt P36551) here?
A: inactive: 0.001

Q: For COPS5 (UniProt Q92905), which log2 fold change is on record?
A: inactive: 0.01

Compound: NC(=O)Nc1cc(-c2cccc(F)c2)sc1C(=O)N[C@H]1CCCNC1
Test: as above
Procedure, shortened: as §1

Q: With COMMD6 isoform 2 (UniProt Q7Z4G1) as the target, how does the log2 fold change read?
A: inactive: -0.008

Q: With COL6A5 (UniProt A8TX70) as the target, how does the log2 fold change read?
A: inactive: 0.017

Q: COIL (UniProt P38432) was tested. Which log2 fold change did it give?
A: inactive: 0.02

Q: How did the log2 fold change turn out when CORO1A (UniProt P31146) was run?
A: inactive: -0.015

Q: Which log2 fold change does the source give for COA1 (UniProt Q9GZY4) here?
A: inactive: -0.031

Q: How did the log2 fold change turn out when CPSF7 isoform 3 (UniProt Q8N684) was run?
A: inactive: -0.028

Q: How did the log2 fold change turn out when CRABP2 (UniProt P29373) was run?
A: inactive: -0.049

Q: Which log2 fold change does the source give for CPQ (UniProt Q9Y646) here?
A: inactive: -0.008

Q: How did the log2 fold change turn out when COMMD7 (UniProt Q86VX2) was run?
A: inactive: -0.03

Q: How did the log2 fold change turn out when COPB1 (UniProt P53618) was run?
A: inactive: 0.016

Q: How did the log2 fold change turn out when CNOT8 (UniProt Q9UFF9) was run?
A: inactive: 0.051

Q: Which log2 fold change does the source give for CPVL (UniProt Q9H3G5) here?
A: inactive: -0.085

Q: For COA3 (UniProt Q9Y2R0), which log2 fold change is on record?
A: inactive: -0.011

Q: For CPNE1 (UniProt Q99829), which log2 fold change is on record?
A: inactive: 0.033

Q: Which log2 fold change does the source give for COA6 isoform 2 (UniProt Q5JTJ3) here?
A: inactive: 0

Q: How did the log2 fold change turn out when CNPY4 (UniProt Q8N129) was run?
A: inactive: 0

Q: Which log2 fold change does the source give for COPZ1 isoform 4 (UniProt P61923) here?
A: inactive: -0.029

Q: How did the log2 fold change turn out when CNOT4 isoform 6 (UniProt O95628) was run?
A: inactive: 0.041

Q: For CNNM3 (UniProt Q8NE01), which log2 fold change is on record?
A: inactive: 0.037

Q: COMMD8 (UniProt Q9NX08) was tested. Which log2 fold change did it give?
A: inactive: -0.066

Q: COPA isoform 2 (UniProt P53621) was tested. Which log2 fold change did it give?
A: inactive: 0.016

Q: CPNE7 (UniProt Q9UBL6) was tested. Which log2 fold change did it give?
A: inactive: 0.035

Q: CPNE3 (UniProt O75131) was tested. Which log2 fold change did it give?
A: inactive: -0.006

Q: Which log2 fold change does the source give for CNOT9 (UniProt Q92600) here?
A: inactive: 0.022

Q: Which log2 fold change does the source give for COG7 (UniProt P83436) here?
A: inactive: 0.033

Q: CORO1C isoform 3 (UniProt Q9ULV4) was tested. Which log2 fold change did it give?
A: inactive: -0.029

Q: How did the log2 fold change turn out when CPED1 (UniProt A4D0V7) was run?
A: inactive: 0.049

Q: For COPS2 isoform 2 (UniProt P61201), which log2 fold change is on record?
A: inactive: 0.004

Q: For CNP (UniProt P09543), which log2 fold change is on record?
A: inactive: -0.009

Q: For CPSF2 (UniProt Q9P2I0), which log2 fold change is on record?
A: inactive: 0.032

Q: How did the log2 fold change turn out when COQ8A (UniProt Q8NI60) was run?
A: inactive: 0.051

Q: Which log2 fold change does the source give for COX20 isoform 2 (UniProt Q5RI15) here?
A: inactive: -0.026

Q: CNN1 (UniProt P51911) was tested. Which log2 fold change did it give?
A: inactive: -0.041

Q: How did the log2 fold change turn out when CNOT11 (UniProt Q9UKZ1) was run?
A: inactive: 0.056

Q: How did the log2 fold change turn out when COPS8 (UniProt Q99627) was run?
A: inactive: -0.021

Q: Which log2 fold change does the source give for COX6C (UniProt P09669) here?
A: inactive: -0.015

Q: CNPY3 (UniProt Q9BT09) was tested. Which log2 fold change did it give?
A: inactive: -0.006

Q: With COX5B (UniProt P10606) as the target, how does the log2 fold change read?
A: inactive: -0.041

Q: Which log2 fold change does the source give for CPOX (UniProt P36551) here?
A: inactive: -0.018

Q: For COPS5 (UniProt Q92905), which log2 fold change is on record?
A: inactive: -0.011
